# From patent publication US8367121B2, “Nutraceutical agent for attenuating the neurodegenerative process associated with Parkinson's disease” (Florida A & M University, priority 2005, dated 2013)
# For at least one compound, name, drawing or mass did not settle the structure.
# Key:
# MPP+ toxicity = MPP+ toxicity in vitro (loss of ATP / cell death); assay type: cell-based
# H2O2 toxicity = H2O2 toxicity in vitro; assay type: cell-based
# From the text: With that, overcoming the initial deficit imposed by PD toxins such as MPP+ are possible with non-glucose intermediates that are capable of sustaining ATP production through substrate level phosphorylation. These compounds should protect against cell death by MPP+, herein also classified under “ANAEROBIC (+)”. […] Agents capable of mediating positive effects on PK/LDH should in theory offset the metabolic vulnerability imposed by the rise in lactate/pyruvate, nicotinamide adenine dinucleotide (NAD)/nicotinamide adenine dinucleotide reduced (NADH) and NADP/NADPH ratios that occur during hypoglycemia and neurological damage (Auer RN. Metab Brain Dis. 2004 December; 19(3-4):169-75). For this reason, the first component and the base of this nutraceutical formulation are one or more of PYRUVIC ACID (*) (PY), […] ACID (SA)* and OXALOACETATE (*) (OA) as well as their corresponding molecular derivatives, analogues, esters or salts. […] On the other hand, PY can readily enter the brain, serve as a useful substrate for glycolysis, the Krebs cycle and the GABA shunt (Gonzalez et al., J Neurochem. 2005 October; 95(1):284-93) with capability to protect ergogenic failure associated with ischemic stroke and heart disease (Lee et al., J Neurosci. 2001 Oct. 15; 21(20):RC171; Hermann et al., Eur J Heart Fail. 2004 Mar. 1; 6(2):213-8).
smiles,measurement,setting,value
"O=C(O)CC(=O)C(=O)O [OA, OXALOACETATE]",protection against MPP+ toxicity,MPP+ toxicity,protect
same,protection against H2O2 toxicity,H2O2 toxicity,protect
